The other results are listed elsewhere or left out. Further columns of the screen follow, without active or inactive calls. Most of these compounds were active or inconclusive in the main read-out, so they are no random draw. Potencies come from curve fits of mixed quality, noted in brackets.
Assay: qHTS Assay for Lipid Storage Modulators in Drosophila S3 Cells;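 on cell number change: cells counted by Cell Tracker Red CMTPX staining in the red channel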
Settings: BODIPY lipid droplet fluorescence, 18-24 h; for cell number change: measured here: cell count max response, cells fed with added oleic acid
Summary of the method: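 Laser-scanning cytometry quantifies lipid droplet accumulation (500–530 nm total intensity; droplet/cell object ratio) in oleic acid-fed (400 uM added) Drosophila S3 cells treated with a concentration series. 20 uM Triacsin C defined 100% inhibition.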

[1] = measured here: lipid fluorescence (Fed channel) AC50, cells fed with added oleic acid
[2] = measured here: cell number channel AC50, cells fed with added oleic acid

SMILES	cell number change [%]	AC50 [1]	AC50 [2]
Cc1ccc(NC(=O)COC(=O)Cn2c(C)csc2=O)c([N+](=O)[O-])c1	19	–	–
Cc1cccc(NC(=S)N=Nc2c(O)n(CN3CCOCC3)c3ccccc23)c1C	-1.45	20.6 µM [falling, single point]	–
Cc1ccc(/C=C/C(=O)c2nc3ccccc3[nH]2)cc1	-46.3	20.6 µM [falling, partial curve]	18.4 µM [falling, single point]
COc1cccc(C=O)c1OCCN1C(=O)c2ccccc2C1=O	12.6	6.51 µM [rising, single point]	0.461 µM [rising, partial curve, poor fit]
Cc1cccc(N(Cc2cc3ccccc3[nH]c2=O)S(=O)(=O)c2ccccc2)c1	–	0.651 µM [rising, partial curve, poor fit]	0.92 µM [rising, full curve]
O=C1CN(C(=O)COC(=O)c2ccc[n+]([O-])c2)c2ccccc2N1	-50.7	20.6 µM [falling, single point]	29.1 µM [falling, single point]
CCCCCCNC(=O)C(=O)NCCc1ccc(Cl)cc1	13.5	–	–
Cc1cc(-n2cnnn2)cc(C)c1S(=O)(=O)N(C)c1ccccc1	–	11.6 µM [falling, partial curve]	–
CC(=O)Oc1c(-c2ccc(Br)o2)oc2ccccc2c1=O	-12.1	–	–
C/C(CC(=O)Nc1ccc(N(C)C)cc1)=N\NC(=O)c1ccc([N+](=O)[O-])cc1Cl	-43.6	–	29.1 µM [falling, single point]
O=C(NCc1ccco1)C(c1ccccc1)N(CC1CCCO1)C(=O)Cn1nnc2ccccc21 (stereo unspecified)	-11.8	–	0.00517 µM [falling, full curve, poor fit]
COc1ccc(Nc2nc(Cl)nc(NCc3ccco3)n2)cc1	-12.1	0.366 µM [falling, partial curve]	–
Cc1cc(C(=O)N2CCN(Cc3ccccc3)CC2)on1	-48	0.206 µM [rising, full curve]	0.82 µM [falling, full curve]
COc1ccc(C)cc1S(=O)(=O)Nc1cc2c3c(c1)C(C)C(=O)N3CCC2 (stereo unspecified)	61.6	–	8.2 µM [rising, partial curve]
CC(C)Cn1c(N)c(C(=O)COC(=O)c2c(F)cccc2F)c(=O)n(C)c1=O	28.4	3.26 µM [rising, partial curve, poor fit]	0.731 µM [rising, full curve, poor fit]

Quoted at random: 2 compounds from above.
SMILES	cell number change [%]	AC50 [1]	AC50 [2]
CC(=O)Oc1c(-c2ccc(Br)o2)oc2ccccc2c1=O	-12.1	–	–
Cc1cc(C(=O)N2CCN(Cc3ccccc3)CC2)on1	-48	0.206 µM [rising, full curve]	0.82 µM [falling, full curve]

Reference: PubChem BioAssay AID2685 (National Center for Advancing Translational Sciences (NCATS), 2010)
